Test results from the supplement of paper PMC10849652.
The list shows a part of the results.

Protein sequences, listed by entry. Tags and fused reporters are not part of them. Lines headed by an entry give the natural chain unless they say otherwise; changes in a name come on top.
UniProt O43924: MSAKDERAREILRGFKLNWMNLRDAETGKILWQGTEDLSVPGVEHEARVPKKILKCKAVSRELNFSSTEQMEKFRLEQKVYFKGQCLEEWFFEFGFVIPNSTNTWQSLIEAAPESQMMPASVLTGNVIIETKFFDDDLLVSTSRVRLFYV
UniProt Q99471, whole entry, looked up: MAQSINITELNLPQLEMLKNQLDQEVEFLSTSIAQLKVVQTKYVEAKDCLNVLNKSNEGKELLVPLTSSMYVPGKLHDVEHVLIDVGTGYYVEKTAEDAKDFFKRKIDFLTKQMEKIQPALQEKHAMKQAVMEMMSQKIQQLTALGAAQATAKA
UniProt P08559, whole entry, looked up: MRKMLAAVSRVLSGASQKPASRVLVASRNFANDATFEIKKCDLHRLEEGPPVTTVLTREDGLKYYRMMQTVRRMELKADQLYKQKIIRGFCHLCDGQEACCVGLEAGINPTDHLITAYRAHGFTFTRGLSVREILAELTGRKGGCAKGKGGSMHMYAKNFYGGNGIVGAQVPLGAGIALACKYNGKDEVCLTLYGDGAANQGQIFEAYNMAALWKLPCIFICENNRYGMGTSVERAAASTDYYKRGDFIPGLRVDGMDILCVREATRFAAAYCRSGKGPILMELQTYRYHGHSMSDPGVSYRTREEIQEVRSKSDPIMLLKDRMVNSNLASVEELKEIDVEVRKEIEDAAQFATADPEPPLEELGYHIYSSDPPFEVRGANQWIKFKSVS
UniProt Q9BRX2, whole entry, looked up: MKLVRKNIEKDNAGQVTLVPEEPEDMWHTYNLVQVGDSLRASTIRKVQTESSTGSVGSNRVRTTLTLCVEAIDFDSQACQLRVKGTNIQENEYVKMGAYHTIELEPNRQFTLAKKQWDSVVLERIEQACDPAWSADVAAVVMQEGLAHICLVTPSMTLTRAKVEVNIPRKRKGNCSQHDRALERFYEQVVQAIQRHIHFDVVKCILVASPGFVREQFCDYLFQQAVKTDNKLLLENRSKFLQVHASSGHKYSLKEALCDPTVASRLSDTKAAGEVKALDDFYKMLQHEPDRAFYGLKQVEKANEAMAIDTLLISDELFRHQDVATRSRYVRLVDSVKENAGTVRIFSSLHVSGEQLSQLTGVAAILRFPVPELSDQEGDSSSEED
UniProt Q86U86, whole entry, looked up: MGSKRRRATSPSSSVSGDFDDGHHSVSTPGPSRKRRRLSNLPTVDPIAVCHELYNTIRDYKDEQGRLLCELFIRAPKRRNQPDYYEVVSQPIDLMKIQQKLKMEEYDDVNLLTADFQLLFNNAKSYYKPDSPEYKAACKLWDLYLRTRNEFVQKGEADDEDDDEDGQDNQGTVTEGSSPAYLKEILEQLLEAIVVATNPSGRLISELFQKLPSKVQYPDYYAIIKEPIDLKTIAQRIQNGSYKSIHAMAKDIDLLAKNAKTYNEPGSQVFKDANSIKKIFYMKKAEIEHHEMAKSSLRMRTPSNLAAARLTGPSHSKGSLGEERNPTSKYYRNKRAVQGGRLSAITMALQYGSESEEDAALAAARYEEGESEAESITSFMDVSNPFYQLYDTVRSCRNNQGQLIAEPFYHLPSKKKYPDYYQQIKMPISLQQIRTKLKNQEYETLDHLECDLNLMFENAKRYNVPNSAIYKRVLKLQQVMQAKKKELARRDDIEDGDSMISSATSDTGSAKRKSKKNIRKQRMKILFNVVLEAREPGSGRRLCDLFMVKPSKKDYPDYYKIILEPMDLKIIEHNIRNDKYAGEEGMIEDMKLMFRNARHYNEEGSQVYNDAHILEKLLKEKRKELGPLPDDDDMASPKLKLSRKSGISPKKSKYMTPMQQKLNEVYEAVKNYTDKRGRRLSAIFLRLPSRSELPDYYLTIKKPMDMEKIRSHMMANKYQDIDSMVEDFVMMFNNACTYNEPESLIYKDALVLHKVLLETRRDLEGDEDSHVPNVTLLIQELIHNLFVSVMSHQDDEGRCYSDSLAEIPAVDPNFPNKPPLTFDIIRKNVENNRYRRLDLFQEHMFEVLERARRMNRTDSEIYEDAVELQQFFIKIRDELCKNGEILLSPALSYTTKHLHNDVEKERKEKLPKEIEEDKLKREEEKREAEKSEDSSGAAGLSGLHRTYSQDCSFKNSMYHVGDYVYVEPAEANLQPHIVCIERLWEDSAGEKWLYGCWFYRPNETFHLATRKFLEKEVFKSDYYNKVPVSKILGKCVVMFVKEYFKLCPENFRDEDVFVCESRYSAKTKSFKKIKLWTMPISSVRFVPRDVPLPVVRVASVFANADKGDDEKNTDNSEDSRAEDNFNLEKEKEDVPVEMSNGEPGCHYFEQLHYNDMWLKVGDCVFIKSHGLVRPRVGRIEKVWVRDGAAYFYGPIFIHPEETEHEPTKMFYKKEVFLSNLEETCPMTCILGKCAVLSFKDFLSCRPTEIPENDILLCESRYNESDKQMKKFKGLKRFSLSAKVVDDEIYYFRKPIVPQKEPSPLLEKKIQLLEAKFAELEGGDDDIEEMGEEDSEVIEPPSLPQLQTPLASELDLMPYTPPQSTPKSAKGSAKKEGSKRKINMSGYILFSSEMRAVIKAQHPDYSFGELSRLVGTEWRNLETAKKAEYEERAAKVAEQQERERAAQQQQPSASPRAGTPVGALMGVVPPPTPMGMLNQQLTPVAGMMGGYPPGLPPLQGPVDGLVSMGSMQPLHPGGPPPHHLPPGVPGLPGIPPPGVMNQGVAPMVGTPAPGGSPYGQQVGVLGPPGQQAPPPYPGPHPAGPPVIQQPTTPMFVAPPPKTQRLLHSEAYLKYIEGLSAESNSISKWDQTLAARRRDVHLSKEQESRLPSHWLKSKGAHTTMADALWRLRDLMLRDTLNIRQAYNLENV
UniProt Q8N165: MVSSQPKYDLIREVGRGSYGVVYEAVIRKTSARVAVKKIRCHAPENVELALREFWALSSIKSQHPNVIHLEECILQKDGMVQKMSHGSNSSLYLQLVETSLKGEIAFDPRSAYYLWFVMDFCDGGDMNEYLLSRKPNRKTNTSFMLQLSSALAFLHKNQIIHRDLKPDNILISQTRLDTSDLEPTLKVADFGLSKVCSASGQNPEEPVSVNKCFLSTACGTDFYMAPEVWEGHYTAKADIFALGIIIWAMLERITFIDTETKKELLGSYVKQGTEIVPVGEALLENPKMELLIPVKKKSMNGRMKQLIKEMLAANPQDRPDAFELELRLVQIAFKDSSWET
UniProt O00623: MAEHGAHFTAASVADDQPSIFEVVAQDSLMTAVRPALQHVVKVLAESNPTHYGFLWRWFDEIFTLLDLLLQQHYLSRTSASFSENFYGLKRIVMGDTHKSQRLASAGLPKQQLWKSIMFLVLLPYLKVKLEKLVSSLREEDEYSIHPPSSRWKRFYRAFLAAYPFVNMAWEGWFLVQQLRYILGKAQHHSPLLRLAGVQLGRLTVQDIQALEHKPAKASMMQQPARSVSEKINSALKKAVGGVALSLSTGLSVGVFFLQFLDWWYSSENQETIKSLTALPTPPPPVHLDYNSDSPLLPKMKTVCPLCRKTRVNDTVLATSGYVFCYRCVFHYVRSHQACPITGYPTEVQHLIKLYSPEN
UniProt Q9NV79: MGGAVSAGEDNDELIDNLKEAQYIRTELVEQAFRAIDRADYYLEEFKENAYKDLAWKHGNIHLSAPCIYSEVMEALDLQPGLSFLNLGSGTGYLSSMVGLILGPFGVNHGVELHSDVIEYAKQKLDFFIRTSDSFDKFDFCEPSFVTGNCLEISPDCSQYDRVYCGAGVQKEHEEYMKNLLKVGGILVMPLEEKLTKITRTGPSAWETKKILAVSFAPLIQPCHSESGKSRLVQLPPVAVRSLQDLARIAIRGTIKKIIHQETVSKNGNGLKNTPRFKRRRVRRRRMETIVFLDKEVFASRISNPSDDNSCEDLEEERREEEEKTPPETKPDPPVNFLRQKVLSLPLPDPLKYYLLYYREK
UniProt P35558, whole entry, looked up: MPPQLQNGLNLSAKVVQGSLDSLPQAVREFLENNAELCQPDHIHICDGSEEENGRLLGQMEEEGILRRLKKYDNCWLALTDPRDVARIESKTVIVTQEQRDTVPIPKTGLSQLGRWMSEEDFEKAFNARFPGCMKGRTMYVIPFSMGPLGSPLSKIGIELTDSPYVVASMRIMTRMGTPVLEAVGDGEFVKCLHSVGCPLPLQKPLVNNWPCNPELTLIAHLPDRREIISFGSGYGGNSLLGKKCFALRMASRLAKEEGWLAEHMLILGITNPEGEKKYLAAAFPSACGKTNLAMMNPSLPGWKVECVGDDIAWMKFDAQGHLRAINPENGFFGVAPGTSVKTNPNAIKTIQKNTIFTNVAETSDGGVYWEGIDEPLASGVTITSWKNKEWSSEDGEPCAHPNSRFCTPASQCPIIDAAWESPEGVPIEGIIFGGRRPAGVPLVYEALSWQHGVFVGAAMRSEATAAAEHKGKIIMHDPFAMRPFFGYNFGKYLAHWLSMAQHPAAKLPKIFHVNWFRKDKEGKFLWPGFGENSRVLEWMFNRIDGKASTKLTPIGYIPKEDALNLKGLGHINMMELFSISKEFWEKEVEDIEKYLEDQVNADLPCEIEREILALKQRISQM
UniProt Q9UBM1: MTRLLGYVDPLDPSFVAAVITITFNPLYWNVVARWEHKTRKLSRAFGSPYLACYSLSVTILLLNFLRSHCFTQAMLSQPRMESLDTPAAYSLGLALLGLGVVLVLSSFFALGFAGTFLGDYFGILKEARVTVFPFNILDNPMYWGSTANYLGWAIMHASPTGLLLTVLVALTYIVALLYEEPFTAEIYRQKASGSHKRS
UniProt Q9P0J1: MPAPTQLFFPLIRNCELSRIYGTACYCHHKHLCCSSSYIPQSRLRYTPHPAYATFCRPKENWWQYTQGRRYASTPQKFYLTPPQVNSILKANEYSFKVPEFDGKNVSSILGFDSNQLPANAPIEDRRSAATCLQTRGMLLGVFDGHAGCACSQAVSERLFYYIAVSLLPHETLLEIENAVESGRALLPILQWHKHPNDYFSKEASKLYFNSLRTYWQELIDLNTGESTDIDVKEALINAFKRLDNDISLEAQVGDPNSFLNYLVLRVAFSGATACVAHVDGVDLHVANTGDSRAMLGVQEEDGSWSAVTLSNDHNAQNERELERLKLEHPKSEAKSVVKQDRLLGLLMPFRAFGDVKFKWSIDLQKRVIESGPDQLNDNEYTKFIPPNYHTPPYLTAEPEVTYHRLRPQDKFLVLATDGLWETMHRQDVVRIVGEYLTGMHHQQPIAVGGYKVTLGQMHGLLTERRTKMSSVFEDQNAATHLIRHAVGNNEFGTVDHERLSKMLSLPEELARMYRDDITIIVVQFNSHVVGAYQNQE
UniProt O15534, whole entry, looked up: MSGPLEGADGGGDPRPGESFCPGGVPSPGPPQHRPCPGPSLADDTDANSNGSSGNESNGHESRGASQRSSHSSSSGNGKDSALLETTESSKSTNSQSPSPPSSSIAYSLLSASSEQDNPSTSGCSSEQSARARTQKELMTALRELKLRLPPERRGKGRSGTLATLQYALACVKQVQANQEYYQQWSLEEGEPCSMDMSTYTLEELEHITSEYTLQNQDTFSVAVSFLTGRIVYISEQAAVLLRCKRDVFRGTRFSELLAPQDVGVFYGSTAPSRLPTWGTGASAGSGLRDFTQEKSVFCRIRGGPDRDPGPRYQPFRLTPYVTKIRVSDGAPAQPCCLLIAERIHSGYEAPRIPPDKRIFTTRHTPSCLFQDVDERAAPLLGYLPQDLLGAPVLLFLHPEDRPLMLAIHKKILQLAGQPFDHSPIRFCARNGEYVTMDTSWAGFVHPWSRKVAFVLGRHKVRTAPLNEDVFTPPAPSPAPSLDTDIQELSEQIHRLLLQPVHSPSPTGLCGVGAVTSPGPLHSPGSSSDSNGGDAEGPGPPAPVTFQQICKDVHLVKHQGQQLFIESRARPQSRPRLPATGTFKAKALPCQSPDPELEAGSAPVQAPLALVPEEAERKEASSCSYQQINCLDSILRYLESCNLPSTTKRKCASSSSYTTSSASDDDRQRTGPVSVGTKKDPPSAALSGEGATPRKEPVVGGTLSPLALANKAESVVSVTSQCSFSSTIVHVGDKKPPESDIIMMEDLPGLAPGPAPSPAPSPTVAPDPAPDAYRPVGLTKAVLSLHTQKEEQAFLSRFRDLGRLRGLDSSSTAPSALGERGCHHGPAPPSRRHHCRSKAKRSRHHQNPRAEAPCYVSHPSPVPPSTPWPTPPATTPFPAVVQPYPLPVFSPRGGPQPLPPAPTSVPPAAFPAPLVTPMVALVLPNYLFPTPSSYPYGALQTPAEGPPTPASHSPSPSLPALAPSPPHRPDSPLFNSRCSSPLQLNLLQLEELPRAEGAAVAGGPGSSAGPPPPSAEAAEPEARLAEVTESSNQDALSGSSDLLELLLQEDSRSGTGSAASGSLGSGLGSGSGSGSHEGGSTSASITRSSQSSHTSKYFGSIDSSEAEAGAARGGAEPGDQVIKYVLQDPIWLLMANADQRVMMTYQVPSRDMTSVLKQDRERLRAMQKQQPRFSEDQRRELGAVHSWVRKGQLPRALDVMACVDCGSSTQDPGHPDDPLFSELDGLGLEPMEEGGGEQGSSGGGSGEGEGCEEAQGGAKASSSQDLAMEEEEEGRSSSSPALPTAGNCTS

Columns and labels:
Assay in all cases: log2 fold change, soluble protein after heating vs DMSO (PISA); higher = thermal stabilisation; K562 lysate, 10 uM; active = over 0.2 and 3.5 SD of the protein, either way, in both replicates (recomputed)
nilotinib = compound: Cc1cn(-c2cc(NC(=O)c3ccc(C)c(Nc4nccc(-c5cccnc5)n4)c3)cc(C(F)(F)F)c2)cn1 [nilotinib]
Procedure, shortened: (§1)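 Quantification was by TMTpro 16plex LC-MS/MS with equalised channel sums, applied to the supernatant after 21,000xg for 90 min. Samples were crude K562 extract at 1 mg/mL protein in PBS pH 7.4 with 1 mM MgCl2, treated with 10 μM compound for 30 min, heated for 3 min across 48°C-58°C, pooled and brought to 0.5% NP-40 at 4°C. Values are log-two fold changes in thermal stability relative to solvent controls, from duplicates.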

[1] = compound: Cc1nc(Nc2n[nH]c3c2CN(C(=O)N[C@H](CN(C)C)c2ccccc2)C3(C)C)c2sccc2n1
Procedure, shortened: as §1

dasatinib = compound: Cc1nc(Nc2ncc(C(=O)Nc3c(C)cccc3Cl)s2)cc(N2CCN(CCO)CC2)n1 [dasatinib]
Procedure, shortened: as §1

[2] = compound: Cc1ncc(-c2ccnc(Nc3ccc(S(C)(=O)=O)cc3)n2)n1C(C)C
Procedure, shortened: as §1

[3] = compound: Cn1cc(-c2ccc3c(c2)CCN3C(=O)Cc2cccc(C(F)(F)F)c2)c2c(N)ncnc21
Procedure, shortened: as §1

quisinostat = compound: Cn1cc(CNCC2CCN(c3ncc(C(=O)NO)cn3)CC2)c2ccccc21 [quisinostat]
Procedure, shortened: as §1

tipifarnib = compound: Cn1cncc1[C@@](N)(c1ccc(Cl)cc1)c1ccc2c(c1)c(-c1cccc(Cl)c1)cc(=O)n2C [tipifarnib]
Procedure, shortened: as §1

[4] = compound: NC(=O)Nc1cc(-c2cccc(F)c2)sc1C(=O)N[C@H]1CCCNC1
Procedure, shortened: as §1

[5] = compound: NC(=O)c1cnc(N[C@@H]2CCCC[C@@H]2N)nc1Nc1cccc(-n2nccn2)c1
Procedure, shortened: as §1

[6] = compound: NC1(c2ccc(-c3nc4ccn5c(=O)[nH]nc5c4cc3-c3ccccc3)cc2)CCC1
Procedure, shortened: as §1

[7] = compound: NCC(=O)Nc1ccc(-n2nc(C(F)(F)F)cc2-c2ccc3c(ccc4ccccc43)c2)cc1
Procedure, shortened: as §1

vorinostat = compound: O=C(CCCCCCC(=O)Nc1ccccc1)NO [vorinostat]
Procedure, shortened: as §1

silmitasertib = compound: O=C(O)c1ccc2c(c1)nc(Nc1cccc(Cl)c1)c1ccncc12 [silmitasertib]
Procedure, shortened: as §1

[8] = compound: O=C1NC(=O)C(c2cnc3ccccn23)=C1c1cn2c3c(cc(F)cc13)CN(C(=O)N1CCCCC1)CC2
Procedure, shortened: as §1

entospletinib = compound: c1cn2cc(-c3ccc4cn[nH]c4c3)nc(Nc3ccc(N4CCOCC4)cc3)c2n1 [entospletinib]
Procedure, shortened: as §1

Target	log2 fold change (nilotinib)	log2 fold change [1]	log2 fold change (dasatinib)	log2 fold change [2]	log2 fold change [3]	log2 fold change (quisinostat)	log2 fold change (tipifarnib)	log2 fold change [4]	log2 fold change [5]	log2 fold change [6]	log2 fold change [7]	log2 fold change (vorinostat)	log2 fold change (silmitasertib)	log2 fold change [8]	log2 fold change (entospletinib)
PCSK9 (UniProt Q8NBP7)	inactive: 0.016	inactive: -0.015	inactive: -0.046	inactive: 0.036	inactive: 0.08	inactive: -0.021	inactive: -0.034	inactive: 0.018	inactive: -0.027	inactive: -0.022	inactive: -0.047	inactive: 0.075	inactive: -0.027	inactive: 0.025	inactive: -0.001
PDE6D (UniProt O43924)	inactive: 0.023	inactive: 0.082	inactive: 0.024	inactive: -0.029	inactive: 0.041		inactive: -0.018		inactive: -0.047	inactive: 0.007		inactive: 0.056	inactive: -0.106		inactive: -0.127
PFDN5 (UniProt Q99471)	inactive: 0.056	inactive: 0	inactive: 0.003	inactive: 0.096	inactive: -0.009	inactive: 0.055	inactive: 0.041	inactive: -0.059	inactive: -0.024	inactive: 0.004	inactive: -0.053	inactive: 0.214	inactive: -0.048	inactive: 0.083	inactive: -0.088
PDHA1 isoform 4 (UniProt P08559)	inactive: -0.029	inactive: -0.017	inactive: -0.011	inactive: -0.036	inactive: 0.038	inactive: -0.037	inactive: 0.02	inactive: 0.005	inactive: 0.017	inactive: -0.015	inactive: 0.039	inactive: -0.105	inactive: 0.047	inactive: 0.004	inactive: 0.002
PELO (UniProt Q9BRX2)	inactive: 0.012	inactive: -0.025	inactive: 0.052	inactive: -0.026	inactive: 0.032	inactive: -0.022	inactive: 0.007	inactive: 0.037	inactive: 0.018	inactive: -0.029	inactive: 0.021	active: -0.495	inactive: 0.058	inactive: 0.02	inactive: 0.006
PDCL3 (UniProt Q9H2J4)	inactive: 0.019	inactive: -0.024	inactive: 0.013	inactive: -0.02	inactive: 0	inactive: -0.005	inactive: -0.003	inactive: -0.011	inactive: -0.008	inactive: -0.014	inactive: 0.074	inactive: 0.123	inactive: 0.004	inactive: -0.011	inactive: -0.001
PDCD5 (UniProt O14737)	inactive: -0.005	inactive: -0.008	inactive: -0.001	inactive: -0.026	inactive: -0.07	inactive: 0.019	inactive: 0.039	inactive: -0.008	inactive: -0.037	inactive: 0.004	inactive: -0.007	inactive: 0.124	inactive: -0.009	inactive: -0.032	inactive: -0.042
PDIA6 isoform 2 (UniProt Q15084)	inactive: -0.017	inactive: -0.024	inactive: 0.015	inactive: 0.021	inactive: -0.013	inactive: 0.017	inactive: 0.021	inactive: -0.019	inactive: 0.022	inactive: -0.003	inactive: 0.012	inactive: 0.07	inactive: 0.013	inactive: 0.002	inactive: -0.005
PBRM1 (UniProt Q86U86)	inactive: 0.068	inactive: 0.082	inactive: -0.15	inactive: -0.115	inactive: 0.159	inactive: 0.009	inactive: -0.012	inactive: 0.016	inactive: 0.047	inactive: -0.309		inactive: 0.163	inactive: -0.046	inactive: -0.108	inactive: -0.141
PDE4DIP isoform 4 (UniProt Q5VU43)	inactive: -0.026	inactive: 0.004	inactive: 0.007	inactive: -0.015	inactive: -0.029	inactive: -0.083	inactive: -0.032	inactive: -0.018	inactive: -0.034	inactive: -0.011	inactive: 0.077	inactive: 0.029	inactive: -0.029	inactive: 0.057	inactive: -0.025
PER2 (UniProt O15055)											inactive: -0.032				
PDE3B (UniProt Q13370)			inactive: 0.013		inactive: -0.095										
PGAP2 isoform 2 (UniProt Q9UHJ9)															inactive: -0.105
PEX7 (UniProt O00628)			inactive: -0.12		inactive: -0.047				inactive: 0.031		inactive: 0.01				inactive: 0
PDK1 (UniProt Q15118)			inactive: 0.113		inactive: 0.153	inactive: 0.069		inactive: -0.013	inactive: 0.031	inactive: -0.237	inactive: 0.194	inactive: -0.003	inactive: 0.082	inactive: -0.094	inactive: -0.223
PCM1 isoform 5 (UniProt Q15154)						inactive: -0.074		inactive: 0.087						inactive: -0.011	inactive: 0.072
PDIK1L (UniProt Q8N165)			inactive: -0.05		inactive: 0.118										
PFKFB1 (UniProt P16118)			inactive: -0.017		inactive: 0.004				inactive: 0.04	inactive: 0.017	inactive: 0.081	inactive: -0.284	inactive: 0.077		inactive: -0.064
PECR (UniProt Q9BY49)															inactive: 0.115
PDIA4, A0A499FI48			inactive: -0.004		inactive: 0.044	inactive: -0.02		inactive: 0.164						inactive: 0.045	
PDCD7 (UniProt Q8N8D1)						inactive: 0.031		inactive: 0						inactive: 0.141	inactive: 0.084
PDE8A (UniProt O60658)						inactive: 0.104		inactive: -0.022		inactive: -0.142	inactive: -0.113	inactive: -0.505	inactive: -0.04	inactive: 0.019	

Quoted at random: 2 entries already listed.
Target	log2 fold change (nilotinib)	log2 fold change [1]	log2 fold change (dasatinib)	log2 fold change [2]	log2 fold change [3]	log2 fold change (quisinostat)	log2 fold change (tipifarnib)	log2 fold change [4]	log2 fold change [5]	log2 fold change [6]	log2 fold change [7]	log2 fold change (vorinostat)	log2 fold change (silmitasertib)	log2 fold change [8]	log2 fold change (entospletinib)
PELO (UniProt Q9BRX2)	inactive: 0.012	inactive: -0.025	inactive: 0.052	inactive: -0.026	inactive: 0.032	inactive: -0.022	inactive: 0.007	inactive: 0.037	inactive: 0.018	inactive: -0.029	inactive: 0.021	active: -0.495	inactive: 0.058	inactive: 0.02	inactive: 0.006
PECR (UniProt Q9BY49)															inactive: 0.115

(further entries)

Target	log2 fold change (nilotinib)	log2 fold change [1]	log2 fold change (dasatinib)	log2 fold change [2]	log2 fold change [3]	log2 fold change (quisinostat)	log2 fold change (tipifarnib)	log2 fold change [4]	log2 fold change [5]	log2 fold change [6]	log2 fold change [7]	log2 fold change (vorinostat)	log2 fold change (silmitasertib)	log2 fold change [8]	log2 fold change (entospletinib)
PFN1 (UniProt I3L3D5)	inactive: -0.009	inactive: -0.088		inactive: 0.108			inactive: 0.006		inactive: 0.04						inactive: -0.194
PEX6 (UniProt Q13608)			inactive: 0.062		inactive: 0.043					inactive: -0.09		inactive: 0.025	inactive: 0.109		inactive: 0.048
PEX1 (UniProt O43933)						inactive: -0.068		inactive: 0.082	inactive: -0.065		inactive: -0.09			inactive: -0.035	inactive: 0.278
PGD (UniProt K7EPF6)	inactive: -0.119	inactive: 0.038		inactive: 0.237		inactive: -0.107	inactive: 0.129	inactive: 0.023	inactive: -0.157					inactive: -0.034	
PCMTD1 (UniProt Q96MG8)											inactive: 0.075				inactive: 0.003
PCGF3 isoform 2 (UniProt Q3KNV8)						inactive: -0.046		inactive: 0.02		inactive: -0.147		inactive: -0.243	inactive: 0.11	inactive: -0.347	
PEX12 (UniProt O00623)									inactive: -0.064						
PCMTD2 (UniProt Q9NV79)						inactive: -0.08		inactive: 0.137		inactive: 0.115	inactive: -0.216	inactive: -0.119	inactive: -0.006	inactive: -0.045	inactive: 0.168
PARP9 (UniProt Q8IXQ6)			inactive: 0.11		inactive: -0.21	inactive: -0.343		inactive: 0.096	inactive: 0.046	inactive: 0	inactive: 0.05	inactive: -0.164	inactive: -0.085	inactive: 0.181	inactive: -0.039
PFKFB4 (UniProt Q16877)			inactive: 0.009		inactive: -0.045	inactive: 0.059		inactive: -0.024	inactive: 0.015	inactive: 0.013	inactive: 0.007	active: -0.369	inactive: 0	inactive: -0.031	inactive: 0.051
PEX5 (UniProt J3KPV0)											inactive: -0.093				inactive: -0.266
PCK1 (UniProt P35558)									inactive: 0.037		inactive: 0.201				
PARP12 (UniProt Q9H0J9)			inactive: -0.038		inactive: -0.021	inactive: -0.201		inactive: 0.102	inactive: 0.066	inactive: -0.204		inactive: -0.028	inactive: -0.01	inactive: -0.178	inactive: 0.015
PCNX3 (UniProt Q9H6A9)			inactive: -0.048		inactive: -0.043	inactive: 0.113		inactive: 0.048	inactive: -0.058		inactive: 0.114			inactive: -0.026	inactive: 0.049
PEMT isoform 2 (UniProt Q9UBM1)									inactive: -0.32		inactive: -0.257				
PFN3 (UniProt P60673)	inactive: -0.104	inactive: 0.001		inactive: 0.033		inactive: -0.349	inactive: -0.083	inactive: -0.044	inactive: -0.087		inactive: 0.158			inactive: -0.142	inactive: -0.134
PCGF1 (UniProt Q9BSM1)			inactive: 0.023		inactive: 0.005					inactive: -0.311	inactive: 0.248	inactive: -0.117	inactive: -0.123		inactive: 0.071
PDP1 isoform 2 (UniProt Q9P0J1)			inactive: 0.018		inactive: -0.028					inactive: -0.224		inactive: 0.218	inactive: -0.17		inactive: -0.022
PER1 (UniProt O15534)			inactive: -0.038		inactive: 0.154	inactive: 0.096		inactive: -0.023						inactive: 0.133	
PEX3 (UniProt P56589)			inactive: 0.039		inactive: -0.13	inactive: -0.002		inactive: 0.026	inactive: 0.022					inactive: 0.026	inactive: -0.086
PCBP2 (UniProt F8VRH0)	inactive: -0.221	inactive: -0.532		inactive: -0.063		inactive: 0.034	inactive: -0.167	inactive: -0.059	inactive: 0.232	inactive: 0.003		active: -0.982	inactive: -0.441	inactive: 0.006	
